Percent effect of library compounds

Sequences of proteins named here, by UniProt entry; tags and fusion partners are left off.
UniProt P9WFT3, whole entry: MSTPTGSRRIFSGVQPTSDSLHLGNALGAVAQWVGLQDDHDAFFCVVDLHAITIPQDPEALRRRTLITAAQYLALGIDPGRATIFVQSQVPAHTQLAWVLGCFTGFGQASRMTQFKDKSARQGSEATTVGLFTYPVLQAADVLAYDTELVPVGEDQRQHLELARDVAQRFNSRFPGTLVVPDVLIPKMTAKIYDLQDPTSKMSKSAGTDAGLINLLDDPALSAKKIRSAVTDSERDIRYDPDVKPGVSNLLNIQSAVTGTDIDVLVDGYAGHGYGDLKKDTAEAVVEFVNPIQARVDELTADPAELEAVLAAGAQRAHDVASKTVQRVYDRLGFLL
UniProt P9WNZ1, whole entry: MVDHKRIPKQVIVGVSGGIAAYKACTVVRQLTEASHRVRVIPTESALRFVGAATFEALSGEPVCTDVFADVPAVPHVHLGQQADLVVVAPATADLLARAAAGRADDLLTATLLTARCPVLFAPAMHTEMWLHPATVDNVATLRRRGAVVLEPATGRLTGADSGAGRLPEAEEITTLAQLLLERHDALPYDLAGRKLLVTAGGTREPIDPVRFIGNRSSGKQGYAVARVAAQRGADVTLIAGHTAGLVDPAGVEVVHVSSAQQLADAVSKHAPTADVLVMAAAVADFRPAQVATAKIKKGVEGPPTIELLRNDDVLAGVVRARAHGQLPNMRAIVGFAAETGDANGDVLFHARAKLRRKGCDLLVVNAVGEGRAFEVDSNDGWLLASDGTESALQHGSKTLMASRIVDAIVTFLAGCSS

Measurements from “University of Dundee, Small-Polar-MMV Screening Library” (2021), ChEMBL document CHEMBL3988442.

The filed quantity is “Percent Effect” (%).
The controls that fix the scale are not given in the record; negative values are as filed.
Compounds were drawn at random from those tested, without regard to their results.
Two or more numbers in one place are separate tests of the same structure; such repeats can differ widely.
A dash means the value is not listed here; it may have been measured.

Leishmania in macrophages: 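Cell assay of Leishmania donovani living inside macrophages; the read-out is not stated. Compounds at 30 µM. Higher reads as stronger inhibition (inferred: compounds with an IC50 in retests scored well above the rest). Of about 69,000 compounds tested this way, about 1,000 (1.5%) reached 50% or more in at least one test.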
MtTrpRS: 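Tryptophan-tRNA ligase, Mycobacterium tuberculosis (UniProt P9WFT3). Enzyme assay of tryptophanyl-tRNA synthetase; the read-out is not stated. Tested at 10 µM. Higher most likely means stronger inhibition; the record gives no direction and few retests gave an IC50. About 65,000 compounds were tested under these conditions; 0.098% (about 64) showed 50% or more at least once.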
Toxoplasma: 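Assay of Toxoplasma gondii numbers, read through their beta-galactosidase reporter with a colour substrate. Compounds at 10 µM. The record gives no direction; the compounds picked for IC50 retests had high values, so higher reads as fewer parasites. Size under these conditions: about 67,000 compounds, about 260 of them at 50% or above in at least one test.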
CoaBC: 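Enzyme assay of CoaBC with a phosphate dye (Biomol Green) read at 650 nm. Target: Coenzyme A biosynthesis protein CoaBC, Mycobacterium tuberculosis (UniProt P9WNZ1). Tested at 30 µM. Direction is inferred from only a few compounds that gave an IC50; most scored high, so higher reads as stronger inhibition. Most strong results did not repeat in a second test. About 67,000 compounds were tested under these conditions; 0.06% (about 40) showed 50% or more at least once.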

SMILES,Leishmania in macrophages,MtTrpRS,Toxoplasma,CoaBC
O=C(CCc1ccncc1)N1CCc2c(ncnc2N2CCOCC2)C1,-2.116%,19.11%,-18.38%,5.325%
CC(=O)NCC1CCN(C(=O)NCCOc2ccc3c(c2)CCC3)CC1,33.14%,-5.214%,-11.82%,0.2632%
O=C(CCn1ncc2c(Cl)cccc21)NCC1CC1,27.88%,4.663%,-3.973%,5.312%
Cc1ccc(-c2nc(CN3CCC(C(=O)N(C)C)CC3)cs2)o1,20.19%,-2.827%,0.8436%,5.744%
CCCn1cc(-c2cc(-c3cnc(OC)nc3)c(C#N)c(N)n2)c(C)n1,16.03%,0.161%,-42.26%,6.277%
CC(=O)N1CCC(Cc2cnc(-c3c(C)n[nH]c3C)cn2)C1 (centres unmarked),18.91%,0.1762%,0.05546%,-3.627%
CC(C)(C)c1noc(OCC(=O)NC2CCCC2)n1,21.99%,-4.145%,-2.781%,-1.603%
COCCNC(=O)Cn1c(-c2cccc(Cl)c2)nc(C)c(CCO)c1=O,2.669%,1.708%,-4.993%,-0.2421%
Cc1cccc(-c2ncc(CNC(C)Cc3ccncc3)cn2)c1 (centres unmarked),-22.9%,-2.377%,0.7572%,1.463%
COCc1cc(C[C@@H]2CC[C@H](O)[C@@H](CN(CC(C)C)CC(C)C)O2)no1,8.701%,-0.5339%,-10.24%,-10.41%
CN(C)c1ccc(C(=O)N2CCCC(n3cncn3)C2)nn1 (centres unmarked),-8.603%,-1.656%,-17.2%,-7.081%
COc1ncnc(N(C)C)c1NC(=O)Cc1c[nH]c2ccc(F)cc12,19.8%,-1.288%,-0.9988%,6.11%
CC(NC1(CNS(=O)(=O)N(C)C)CCCC1)c1ccccc1 (centres unmarked),17.93%,-2.2%,1.578%,4.39%
CN(Cc1c(F)cccc1Cl)C(=O)CN(C)C1CCc2ccccc21 (centres unmarked),17.56%,-0.1211%,-3.601%,2.016%
CN1CCC(N(Cc2ccco2)S(=O)(=O)c2cc(Br)ccc2Br)CC1,95.6%,0%,10.2%,-21.38%
[H][C@@]12CN(Cc3ccc(Cl)cc3)C[C@]1([H])OCC(=O)N2CC(N)=O,-12%,-,-5.776%,-
CCC(C)(C)NC(=O)Nc1nnc(-c2ccccn2)s1,1.94%,-6.244%,-12.48%,0.3628%
CN(CC1(CO)CCCC1)C(=O)c1cc(COc2ccccc2F)[nH]n1,-12.47%,4.516%,11.52%,-1.347%
Cc1nc(CN(C)c2nccc(C(F)(F)F)n2)cs1,5.886%,-3.53%,-4.841%,-3.071%
COCC(=O)N1CCCCC1c1nc(N(C)C)ncc1-c1cc(C)no1 (centres unmarked),3.937%,1.172%,24.96%,0%
CNC(=O)c1ccc(C(=O)N2CCCCC2Cn2cc(C)cn2)cn1 (centres unmarked),-21.94%,-6.684%,11.5%,0.5263%
Cc1ccc(Oc2c(F)cccc2OC[C@@H](N)CC(C)C)cc1,95.01%,1.057%,13.55%,3.883%
CCc1noc(CN2CCN(c3nccs3)CC2)n1,-8.963%,71.79%,15.81%,1.434%
COc1ccc(-c2ccc(C3CNCCO3)nc2)cc1.Cl (centres unmarked),6.85% & 7.741%,-,11.29%,-
Cc1cc(CN2CCO[C@H]3[C@H](OCc4csc(C)n4)CC[C@@H]32)no1,-,1.926%,-,8.705%
O=C(NCC(O)c1cccs1)c1sccc1OC(F)F (centres unmarked),10.98%,5.374%,6.629%,5.4%
CCN1CCC(NC(=O)CN2CCCC2Cn2cncn2)CC1 (centres unmarked),-1.386%,-2.047%,-0.2812%,3.916%
CN(Cc1ccco1)C[C@H]1OC[C@@H]2CCN(Cc3ccncc3)C[C@@H]21,-,-0.08032%,-,2.447%
CCOC(=O)Cn1ccc2cc(NC(=O)N3CCSCC3)ccc21,22.87%,-1.06%,1.935%,-4.783%
c1ccc(-c2nc(CNC3CCc4ncnn4C3)co2)cc1 (centres unmarked),14.11%,1.199%,4.023%,2.41%
Cc1nc(CN2CCO[C@@H]3CN(Cc4nccs4)C[C@@H]3C2)cs1,-,1.569%,-,4.622%
Cn1ccnc1CN1CCO[C@H]2C(CNC(=O)c3ccco3)CC[C@@H]21 (some centres unmarked),-,-2.75%,-,4.583%
CC(=O)N[C@@H]1CN(C(=O)c2csc(C(C)C)n2)C[C@H]1C(C)C,23.77%,6.49%,-0.5623%,2.561%
COC(=O)[C@H](CCSC)NC(=O)Cc1c(C)nn(-c2ccccc2)c1C,13.04%,2.983%,1.529%,-1.392%
[H][C@]12CCC[C@@]1(COCc1ccccn1)CN(C(=O)C1CCOCC1)C2,39.51%,-,3.235%,-
COc1ccc(S(=O)(=O)N2CCOC(Cn3ccnc3)C2)cc1 (centres unmarked),-,-1.621%,-,-3.641%
Cn1cccc1C(=O)N1Cc2c(CN3CCCCC3)nn(C)c2C1,31.77%,1.424%,6.498%,4.459%
CCc1cc(C(=O)NCC2CCN(Cc3ccncc3)CC2)on1,26.13%,2.855%,-2.304%,-13.61%
CCN1CCC(CNCc2c[nH]nc2C(C)(C)C)C1.Cl (centres unmarked),7.144%,-,-11.56%,-
CCc1cnc(CN(C(C)=O)C2CCN(Cc3nccn3C)C2)o1 (centres unmarked),16.38%,3.29%,5.528%,6.6%
CC(C(=O)N1CCCN(c2ccc(C#N)cc2)CC1)n1cccn1 (centres unmarked),12.01%,0.5136%,-5.721%,3.959%
CC(C)c1nc(C2CCCN2C(=O)c2ccc3nncn3c2)no1 (centres unmarked),-0.4648%,2.999%,-3.577%,1.518%
O=S(=O)(CCCNC1CCc2ncnn2C1)c1ccccc1 (centres unmarked),9.636%,10.16%,28.68%,-12.06%
Cc1nnc2n1CCN(CC(=O)NC(C)c1cc3ccccc3o1)C2 (centres unmarked),9.106%,-3.881%,6.533%,6.01%
COc1ncccc1C(=O)N1CCC(c2nnc(C3CC3)o2)CC1,11.34%,4.52%,-7.539%,-1.394%
CCc1cnc2c(c1Nc1ccncc1)c(=O)n(C)c(=O)n2C,18.49%,3.197%,-5.876%,0.6337%
c1ccc(O[C@@H]2CC[C@H]3[C@H]2OCCN3Cc2ccsc2)nc1,-,8.462%,-,11.73%
CCn1c(CN(C)C)nnc1C1CCN(Cc2ccccc2)CC1,42.2%,-0.4143%,6.261%,3.182%
Cc1n[nH]c(C2CN(CC(=O)NCCc3ccccc3C)CCO2)n1 (centres unmarked),-38.97%,3.213%,1.296%,6.53%
Cc1csc2cc(C(=O)NC3CCCC3)cnc12,2.421%,-,8.9%,-0.7282%
Cc1nc2ccccc2c(=O)n1CCC(=O)N1CCCC1,19.05%,-3.704%,7.679%,-0.1267%
O=C(c1cnccn1)N1CCC(Cc2cnc3[nH]ccc3c2)CC1,-12.85%,-,-14.23%,-0.4902%
Cc1cc(C2CCCN2Cc2cc(=O)n(C)c(=O)n2C)no1 (centres unmarked),-8.976%,20.45%,-16.28%,0.5263%
CCNC(=O)[C@@H]1C[C@@H](NC(=O)c2cnc[nH]c2=O)CN1Cc1ccsc1,54.56%,0%,-18.32%,1.022%
Cc1cc(C)cc(NC(=O)N(CCC#N)CCCN(C)C)c1,15.1%,0.2683%,-0.5671%,1.2%
[H][C@@]12COC[C@]1(COc1cccnc1)CN(C(=O)c1ccc(C)nc1)C2,15.47%,-,-3.066%,-
O=S(=O)(Nc1cnn(C2CCOCC2)c1)c1ccc(Br)cc1,31.46%,5.282%,-4.79%,0.8424%
O=C(c1cccc2c1OCCO2)N1CCCC1Cn1cccn1 (centres unmarked),20.77%,-2.36%,1.853%,1.512%
CCc1cc(=O)[nH]c(NC2CCN(S(=O)(=O)c3ccccc3)CC2)n1,20.77%,-14.33%,3.608%,17.01% & 47.49%
CCN(C)c1ncnc2c1CCN(Cc1csc(C)n1)CC2,-,4.969%,-,5.913%
COc1c(CNCc2ccc(OCC(N)=O)cc2)c(C)nn1C,22.52%,-0.6555%,-2.912%,1.044%
C1CCC(c2nc3c(c(N4CC(N5CCOCC5)C4)n2)CCNCC3)C1,33.91%,0%,3.357%,-2.899%

Once more, the final 3:

* CCN(C)c1ncnc2c1CCN(Cc1csc(C)n1)CC2 : MtTrpRS: 4.969%; CoaBC: 5.913%
* COc1c(CNCc2ccc(OCC(N)=O)cc2)c(C)nn1C : Leishmania in macrophages: 22.52%; MtTrpRS: -0.6555%; Toxoplasma: -2.912%; CoaBC: 1.044%
* C1CCC(c2nc3c(c(N4CC(N5CCOCC5)C4)n2)CCNCC3)C1 : Leishmania in macrophages: 33.91%; MtTrpRS: 0%; Toxoplasma: 3.357%; CoaBC: -2.899%